# Experimental data: the supplement of paper PMC4635364
# Structures can show the parent of a compound that is named as a salt. The list shows a part of the results. This data set is noisy: repeats of one test often differ as much as different tests do.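 Cells: ReNCell VM human fetal ventral-midbrain neural progenitors, differentiated mitogen-free. Blinded raters compared doublecortin-stained (early neurons) or tyrosine hydroxylase-stained (dopaminergic neurons) images with untreated wells, where 0 means no change. After repeats and both raters were averaged, compounds scoring 2 or above became hits for retesting.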
# System: ReNCell VM
# Test: dopaminergic neuron differentiation score (TH+ cell fraction vs untreated, manual image score) (score (0 to 3)); higher = more TH+ dopaminergic neuron differentiation
# Conditions: library: Phytochemical; 2 uM; 4 weeks; BDNF 10 ng/ml + GDNF 10 ng/ml
row,Compound,dopaminergic neuron differentiation score
1,COc1cc(CNC(=O)CCCC/C=C/C(C)C)ccc1O [Capsaicin],inactive: 0
2,O=c1oc2c(O)c(O)cc3c(=O)oc4c(O)c(O)cc1c4c23 [Ellagic Acid],inactive: 0
3,O=C(/C=C/C=C/c1ccc2c(c1)OCO2)N1CCCCC1 [Piperine],inactive: 0

# Same assay, conditions: library: Prestwick; 2 uM; 4 weeks; BDNF 10 ng/ml + GDNF 10 ng/ml
row,Compound,dopaminergic neuron differentiation score
1,C=C(CC)C(=O)c1ccc(OCC(=O)O)c(Cl)c1Cl [Ethacrynic acid],inactive: 0
2,NNC(=O)c1ccncc1 [Isoniazid],inactive: 0
3,CCOc1ccc2ccccc2c1C(=O)N[C@@H]1C(=O)N2[C@@H]1SC(C)(C)[C@@H]2C(=O)O [Nafcillin sodium salt monohydrate],inactive: 0
4,COc1ncnc(NS(=O)(=O)c2ccc(N)cc2)c1OC [Sulfadoxine],inactive: 0
5,CCN(CC)C(=O)c1ccc(O)c(OC)c1 [Ethamivan],inactive: 0
6,COc1cc(C)nc(-n2nc(C)cc2OC)n1 [Epirizole],inactive: 0
7,CO[C@H]1/C=C/O[C@@]2(C)Oc3c(C)c(O)c4c(O)c(c(/C=N/N5CCN(C6CCCC6)CC5)c(O)c4c3C2=O)NC(=O)/C(C)=C\C=C\[C@H](C)[C@H](O)[C@@H](C)[C@@H](O)[C@@H](C)[C@H](OC(C)=O)[C@@H]1C [Rifapentine],inactive: 0
8,O=P(O)(O)C(Cl)(Cl)P(=O)(O)O [Clodronate],inactive: 0
9,Nc1ccn([C@H]2CC[C@@H](CO)O2)c(=O)n1 [Zalcitabine],inactive: 0
10,"Cc1cn([C@H]2C[C@H](N=[N+]=[N-])[C@@H](CO)O2)c(=O)[nH]c1=O [Zidovudine, AZT]",inactive: 0

# Same assay, conditions: library: Spectrum; 2 uM; 4 weeks; BDNF 10 ng/ml + GDNF 10 ng/ml
row,Compound,dopaminergic neuron differentiation score
1,O=C(O)c1cc2cc(F)ccc2[nH]1,inactive: 0
2,CC/C=C\C/C=C\C/C=C\C/C=C\C/C=C\C/C=C\CCC(=O)O,inactive: 0
3,CC(=O)Nc1ccc(O)cc1,inactive: 0
4,OCc1c[nH]c2ccccc12,inactive: 0
5,COC(=O)/C=C/C(C)=C\C=C\C(C)=C\C=C\C=C(C)\C=C\C=C(C)\C=C\C(=O)O,inactive: 0
6,O=c1[nH]cnc2c1ncn2[C@@H]1O[C@H](CO)[C@@H](O)[C@H]1O,inactive: 0
7,CCn1cc(C(=O)O)c(=O)c2ccc(C)nc21,inactive: 0
8,COc1cc2nc(N3CCN(C(=O)C4COc5ccccc5O4)CC3)nc(N)c2cc1OC (stereo not given),inactive: 0
9,CC=CC(=O)N(CC)c1ccccc1C,inactive: 0
10,NC[C@H]1O[C@H](O[C@H]2[C@H](O[C@@H]3O[C@H](CO)[C@@H](O)[C@H]3O)[C@@H](O)[C@H](N)C[C@@H]2N)[C@H](N)[C@@H](O)[C@@H]1O,inactive: 1
11,COc1ccc(NS(=O)(=O)c2ccc(N)cc2)nn1,inactive: 0
12,NC(=O)NC1NC(=O)NC1=O (stereo not given),inactive: 0
